Experimental findings from PMC12781876 are described below.

No constants are given. Whether binding was seen depends on the method and setting. Binding seen in cells or lysates may run through a third protein. For part of these data: Binding calls can cover weak binding; strength is not graded here. For part of these data: Tags and fused reporters may be left off the sequences shown.

For experiment [1], the target named is T1, KpRtg1–GST (expressed in K. phaffii) (K. phaffii) (UniProt F2QMN0).
T1 sequence: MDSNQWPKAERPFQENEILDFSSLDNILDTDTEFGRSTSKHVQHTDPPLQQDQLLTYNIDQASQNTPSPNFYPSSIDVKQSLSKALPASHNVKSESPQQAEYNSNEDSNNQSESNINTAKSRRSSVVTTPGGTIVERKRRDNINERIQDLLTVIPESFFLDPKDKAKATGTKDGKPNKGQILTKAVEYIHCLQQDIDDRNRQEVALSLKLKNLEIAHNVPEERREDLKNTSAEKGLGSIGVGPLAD
Nature of the experiment: pull-down; KpRtg1-GST from K. phaffii lysate bound to GST beads and washed (1x PBS, 0.2% Triton X), used as bait; incubated with lysate containing KpRtgX-GFP from K. phaffii cells cultured in YNBM; 4°C, 2 h; western blot; only the target purified. (In general: In western blotting, separated proteins are transferred to a membrane and probed.)

Experiment [2] concerns the target T2, GST–KpRtg1 (expressed in E. coli) (K. phaffii) (UniProt F2QMN0).
T2 sequence: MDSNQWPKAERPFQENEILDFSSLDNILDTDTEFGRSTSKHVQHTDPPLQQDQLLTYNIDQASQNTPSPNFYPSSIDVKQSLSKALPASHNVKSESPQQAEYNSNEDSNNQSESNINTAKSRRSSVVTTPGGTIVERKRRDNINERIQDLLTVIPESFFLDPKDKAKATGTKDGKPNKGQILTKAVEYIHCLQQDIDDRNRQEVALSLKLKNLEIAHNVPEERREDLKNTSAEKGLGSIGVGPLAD
Nature of the experiment: pull-down; GST-Rtg1 present in E. coli cell lysates immobilized onto glutathione Sepharose-4B beads; E. coli cell lysates containing MBP-Rtg3/RtgX added; after washing, beads analysed by SDS-PAGE and Coomassie Brilliant Blue staining; only the target purified.

The target in experiment [3] is KpRtgX–GFP (expressed in K. phaffii) (K. phaffii). Nature of the experiment: pull-down; GST-tagged anti-GFP nanobody on glutathione beads as bait; 2 mg total lysate of K. phaffii cells cultured in YNB Glu containing both KpRtgX-GFP and KpRtg1-mCherry; 4°C, 2 h; washed with 1x PBS, 0.2% Triton X; western blot.

As for KpRtgX–GFP (expressed in K. phaffii), the binding entry in experiment [1] is “binds”. Consider “MBP–KpRtgX (expressed in E. coli) (K. phaffii)”, for which the binding entry in experiment [2] was “no binding”.

B1: KpRtg1–mCherry (expressed in K. phaffii) (protein, UniProt F2QMN0 1-246)
chain: MDSNQWPKAERPFQENEILDFSSLDNILDTDTEFGRSTSKHVQHTDPPLQQDQLLTYNIDQASQNTPSPNFYPSSIDVKQSLSKALPASHNVKSESPQQAEYNSNEDSNNQSESNINTAKSRRSSVVTTPGGTIVERKRRDNINERIQDLLTVIPESFFLDPKDKAKATGTKDGKPNKGQILTKAVEYIHCLQQDIDDRNRQEVALSLKLKNLEIAHNVPEERREDLKNTSAEKGLGSIGVGPLAD
As to B1, the binding result in experiment [3] is “binds”.
